No constants are given. Whether binding was seen depends on the method and setting. In cells and extracts the contact can be indirect. Some results given as binding are weak or reduced against the parent protein; the word gives no strength. Where a sequence is shown, tags or fusion partners need not be part of it.
Key:
[1] = target: MPP-processed MTP-CoxIV::Twin Strep::AnfK fusion polypeptide (gene of SN195; in SL34, SL37, SL43) (Azotobacter vinelandii) (UniProt P16267); assay: co-purification on Strep-tactin XT column through TwinStrep::AnfK (SL37), anaerobic; anti-HA Western blot of the eluate
[2] = target: MPP-processed MTP-CoxIV::TwinStrep::AvAnfG fusion polypeptide (in SL93) (Azotobacter vinelandii); assay: co-purification on Strep-tactin XT column through TwinStrep::AnfG (SL93), anaerobic; anti-HA Western blot of the eluate

Chains of the proteins cited; added tags and fusions are not shown. Lines headed by an entry give the natural chain unless they say otherwise; changes in a name come on top.
UniProt P16267: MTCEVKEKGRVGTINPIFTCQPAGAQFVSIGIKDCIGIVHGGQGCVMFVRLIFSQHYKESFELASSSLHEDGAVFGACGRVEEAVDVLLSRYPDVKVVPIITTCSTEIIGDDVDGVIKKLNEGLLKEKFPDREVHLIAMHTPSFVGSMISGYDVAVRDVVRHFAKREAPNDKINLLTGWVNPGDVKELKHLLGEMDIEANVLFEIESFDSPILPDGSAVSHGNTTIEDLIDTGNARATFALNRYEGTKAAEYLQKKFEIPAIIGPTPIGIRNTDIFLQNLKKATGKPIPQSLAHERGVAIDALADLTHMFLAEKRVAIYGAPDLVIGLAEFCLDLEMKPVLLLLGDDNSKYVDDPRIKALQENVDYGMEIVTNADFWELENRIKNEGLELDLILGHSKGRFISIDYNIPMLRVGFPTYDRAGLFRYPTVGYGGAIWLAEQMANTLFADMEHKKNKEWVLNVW

| Binder | binding [1] | binding [2] |
| --- | --- | --- |
| unprocessed MTP-FAγ51::AnfD::HA fusion polypeptide (gene of SN81; in SL37) (enzyme) MMAMAVFRREGRRLLPSIAARPIAAIRSPLSSDQEEGLLGVRSISTQVVRNRGGMPHHEFECSKVIPERKKHAVIKGKGETLADALPQGYLNTIPGSISERGCAYCGAKHVIGTPMKDVIHISHGPVGCTYDTWQTKRYISDNDNFQLKYTYATDVKEKHIVFGAEKLLKQNIIEAFKAFPQIKRMTIYQTCATALIGDDINAIAEEVMEEMPEVDIFVCNSPGFAGPSQSGGHHKINIAWINQKVGTVEPEITGDHVINYVGEYNIQGDQEVMVDYFKRMGIQVLSTFTGNGSYDGLRAMHRAHLNVLECARSAEYICNELRVRYGIPRLDIDGFGFKPLADSLRKIGMFFGIEDRAKAIIDEEVARWKPELDWYKERLMGKKVCLWPGGSKLWHWAHVIEEEMGLKVVSVYTKFGHQGDMEKGIARCGEGTLAIDDPNELEGLEALEMLKPDIILTGKRPGEVAKKVRVPYLNAHAYHNGPYKGFEGWVRFARDIYNAIYSPIHQLSGIDITKDNAPEWGNGFRTRQMLSDGNLSDAVRNSETLRQYTGGYDSVSKLREREYPAFERKVGGGYPYDVPDYA | binds | – |
| unprocessed MTP-FAγ51::HA::AnfD fusion polypeptide (gene of SN161; in SL93) (enzyme) MAMAVFRREGRRLLPSIAARPIAAIRSPLSSDQEEGLLGVRSISTQVVRNRGGYPYDVPDYAGGMPHHEFECSKVIPERKKHAVIKGKGETLADALPQGYLNTIPGSISERGCAYCGAKHVIGTPMKDVIHISHGPVGCTYDTWQTKRYISDNDNFQLKYTYATDVKEKHIVFGAEKLLKQNIIEAFKAFPQIKRMTIYQTCATALIGDDINAIAEEVMEEMPEVDIFVCNSPGFAGPSQSGGHHKINIAWINQKVGTVEPEITGDHVINYVGEYNIQGDQEVMVDYFKRMGIQVLSTFTGNGSYDGLRAMHRAHLNVLECARSAEYICNELRVRYGIPRLDIDGFGFKPLADSLRKIGMFFGIEDRAKAIIDEEVARWKPELDWYKERLMGKKVCLWPGGSKLWHWAHVIEEEMGLKVVSVYTKFGHQGDMEKGIARCGEGTLAIDDPNELEGLEALEMLKPDIILTGKRPGEVAKKVRVPYLNAHAYHNGPYKGFEGWVRFARDIYNAIYSPIHQLSGIDITKDNAPEWGNGFRTRQMLSDGNLSDAVRNSETLRQYTGGYDSVSKLREREYPAFERKVG | – | binds |
| unprocessed MTP-FAγ51::HA::AnfK fusion polypeptide (gene of SN129; in SL93) (enzyme) MAMAVFRREGRRLLPSIAARPIAAIRSPLSSDQEEGLLGVRSISTQVVRNRGGYPYDVPDYAGGMTCEVKEKGRVGTINPIFTCQPAGAQFVSIGIKDCIGIVHGGQGCVMFVRLIFSQHYKESFELASSSLHEDGAVFGACGRVEEAVDVLLSRYPDVKVVPIITTCSTEIIGDDVDGVIKKLNEGLLKEKFPDREVHLIAMHTPSFVGSMISGYDVAVRDVVRHFAKREAPNDKINLLTGWVNPGDVKELKHLLGEMDIEANVLFEIESFDSPILPDGSAVSHGNTTIEDLIDTGNARATFALNRYEGTKAAEYLQKKFEIPAIIGPTPIGIRNTDIFLQNLKKATGKPIPQSLAHERGVAIDALADLTHMFLAEKRVAIYGAPDLVIGLAEFCLDLEMKPVLLLLGDDNSKYVDDPRIKALQENVDYGMEIVTNADFWELENRIKNEGLELDLILGHSKGRFISIDYNIPMLRVGFPTYDRAGLFRYPTVGYGGAIWLAEQMANTLFADMEHKKNKEWVLNVW | – | binds |

— patent publication US20240117326A1
